We go through four molecules from PMC9576614.

Amino acid sequences for entries named in this document (tags omitted).
UniProt Q7KZF4: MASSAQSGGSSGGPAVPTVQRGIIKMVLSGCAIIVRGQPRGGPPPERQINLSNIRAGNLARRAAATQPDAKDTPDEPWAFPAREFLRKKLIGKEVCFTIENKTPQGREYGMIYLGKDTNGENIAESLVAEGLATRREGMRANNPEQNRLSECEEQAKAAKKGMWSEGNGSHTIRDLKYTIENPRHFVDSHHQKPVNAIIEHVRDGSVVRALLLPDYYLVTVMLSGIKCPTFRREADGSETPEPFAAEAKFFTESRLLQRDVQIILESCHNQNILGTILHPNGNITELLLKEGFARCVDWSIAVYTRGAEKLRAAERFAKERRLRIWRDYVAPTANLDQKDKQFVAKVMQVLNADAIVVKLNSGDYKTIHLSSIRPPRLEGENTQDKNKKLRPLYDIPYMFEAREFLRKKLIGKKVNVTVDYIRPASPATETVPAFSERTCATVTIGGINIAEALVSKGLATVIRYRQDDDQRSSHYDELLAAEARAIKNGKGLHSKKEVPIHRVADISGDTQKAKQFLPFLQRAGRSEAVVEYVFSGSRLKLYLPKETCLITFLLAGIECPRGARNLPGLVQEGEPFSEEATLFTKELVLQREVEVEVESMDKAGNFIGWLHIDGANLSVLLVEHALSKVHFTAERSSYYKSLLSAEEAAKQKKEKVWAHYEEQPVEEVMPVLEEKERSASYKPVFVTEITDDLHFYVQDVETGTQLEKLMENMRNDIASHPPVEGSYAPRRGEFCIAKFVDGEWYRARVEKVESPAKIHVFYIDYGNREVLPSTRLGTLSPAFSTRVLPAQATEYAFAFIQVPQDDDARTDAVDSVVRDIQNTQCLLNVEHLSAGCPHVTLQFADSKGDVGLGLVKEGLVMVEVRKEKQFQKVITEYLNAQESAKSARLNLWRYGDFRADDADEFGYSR
UniProt Q969H0: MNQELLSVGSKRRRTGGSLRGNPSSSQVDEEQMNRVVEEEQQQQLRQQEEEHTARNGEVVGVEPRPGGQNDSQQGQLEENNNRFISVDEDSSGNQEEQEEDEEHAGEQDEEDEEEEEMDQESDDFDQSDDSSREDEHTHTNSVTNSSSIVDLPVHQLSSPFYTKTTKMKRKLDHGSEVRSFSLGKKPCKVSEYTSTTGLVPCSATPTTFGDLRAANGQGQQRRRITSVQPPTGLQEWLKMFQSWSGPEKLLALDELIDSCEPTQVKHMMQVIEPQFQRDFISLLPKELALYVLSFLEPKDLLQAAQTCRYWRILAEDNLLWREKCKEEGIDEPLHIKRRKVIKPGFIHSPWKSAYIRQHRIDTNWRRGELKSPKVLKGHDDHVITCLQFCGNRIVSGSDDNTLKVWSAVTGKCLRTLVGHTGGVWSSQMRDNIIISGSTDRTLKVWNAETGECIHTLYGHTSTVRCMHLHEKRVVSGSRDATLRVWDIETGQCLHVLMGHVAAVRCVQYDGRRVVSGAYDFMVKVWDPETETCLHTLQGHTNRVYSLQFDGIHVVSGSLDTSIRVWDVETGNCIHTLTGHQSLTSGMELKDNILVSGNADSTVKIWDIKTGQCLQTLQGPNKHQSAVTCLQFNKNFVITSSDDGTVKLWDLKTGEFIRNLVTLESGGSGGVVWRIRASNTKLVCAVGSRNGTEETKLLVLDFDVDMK

Positions count from the first letter of the chain named. Names and notes keep the numbering of the source. These are yes or no findings as the source states them, for the method shown. In cells and extracts the contact can be indirect. Some results given as binding are weak or reduced against the parent protein; the word gives no strength. For some assays here: Tags and fused reporters may be left off the sequences shown.

The target of experiment [1] is T1, SND1, endogenous in mouse liver (mouse (endogenous in liver)) (UniProt Q78PY7).
T1 sequence: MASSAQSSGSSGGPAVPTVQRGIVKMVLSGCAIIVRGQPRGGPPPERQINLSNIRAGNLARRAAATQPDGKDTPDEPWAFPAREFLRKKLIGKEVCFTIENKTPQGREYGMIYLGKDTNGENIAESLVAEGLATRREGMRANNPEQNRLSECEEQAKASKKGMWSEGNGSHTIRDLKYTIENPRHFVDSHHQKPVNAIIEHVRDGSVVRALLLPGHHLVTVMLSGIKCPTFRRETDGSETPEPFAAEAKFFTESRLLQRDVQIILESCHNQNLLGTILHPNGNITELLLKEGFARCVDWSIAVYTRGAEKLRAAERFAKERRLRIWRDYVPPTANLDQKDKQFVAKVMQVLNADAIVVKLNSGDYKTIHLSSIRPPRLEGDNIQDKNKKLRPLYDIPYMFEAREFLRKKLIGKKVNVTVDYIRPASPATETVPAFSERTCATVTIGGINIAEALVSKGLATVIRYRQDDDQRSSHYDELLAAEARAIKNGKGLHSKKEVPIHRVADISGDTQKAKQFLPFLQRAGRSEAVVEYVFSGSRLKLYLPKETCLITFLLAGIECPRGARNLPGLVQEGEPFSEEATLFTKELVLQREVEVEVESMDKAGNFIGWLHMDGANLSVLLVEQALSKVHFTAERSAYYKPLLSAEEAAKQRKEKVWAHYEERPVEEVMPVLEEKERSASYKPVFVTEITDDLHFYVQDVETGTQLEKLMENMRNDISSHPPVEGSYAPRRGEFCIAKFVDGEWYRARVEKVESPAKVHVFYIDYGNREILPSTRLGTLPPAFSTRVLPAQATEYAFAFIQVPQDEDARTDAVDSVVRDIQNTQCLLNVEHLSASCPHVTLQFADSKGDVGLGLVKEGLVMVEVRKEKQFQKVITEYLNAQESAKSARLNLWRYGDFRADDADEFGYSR
In words: co-IP; livers of WT, AEG-1^C75A and Zdhhc6-/- mice; association of AEG-1 with SND1, western blotting, quantified, normalised to WT.

Experiment [2] addresses T2, wildtype AEG-1 (Astrocyte-elevated gene-1), Myc-tagged (human) (UniProt Q86UE4).
T2 sequence (chain, Cys-75 palmitoylated in cells (mono-palmitoylated by APEGS assay)): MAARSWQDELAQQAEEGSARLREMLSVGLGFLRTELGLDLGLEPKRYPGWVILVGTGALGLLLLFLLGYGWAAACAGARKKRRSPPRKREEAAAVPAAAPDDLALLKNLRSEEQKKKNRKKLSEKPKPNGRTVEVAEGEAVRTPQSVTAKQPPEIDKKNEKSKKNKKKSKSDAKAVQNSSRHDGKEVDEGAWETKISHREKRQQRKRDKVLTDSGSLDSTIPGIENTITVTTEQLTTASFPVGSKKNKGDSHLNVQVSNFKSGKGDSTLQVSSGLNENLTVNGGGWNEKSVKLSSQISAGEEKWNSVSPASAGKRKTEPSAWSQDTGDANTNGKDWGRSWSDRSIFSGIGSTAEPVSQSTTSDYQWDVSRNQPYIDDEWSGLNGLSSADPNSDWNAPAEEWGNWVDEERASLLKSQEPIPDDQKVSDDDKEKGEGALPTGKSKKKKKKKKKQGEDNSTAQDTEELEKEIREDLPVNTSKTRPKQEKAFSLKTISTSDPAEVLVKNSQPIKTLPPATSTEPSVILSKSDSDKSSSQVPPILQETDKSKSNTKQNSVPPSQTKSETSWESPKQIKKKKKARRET
In words: co-IP; interaction of AEG-1 with PPT1 or PPT2 by co-IP and western blotting; cell line and tags not stated in the legend.

Experiment [3] addresses staphylococcal nuclease and tudor domain containing 1 (SND1), endogenous in human liver cancer cells (human (endogenous in Huh7 and HepG2)) (UniProt Q7KZF4). Put plainly: co-IP; AEG-1-WT or AEG-1-MT expressed in Huh7 cells; coprecipitation with SND1, quantified, normalised to AEG-1-WT.
Experiment [4] addresses T3, palmitoyl-transferase zDHHC6, HA-tagged (UniProt Q9H6R6).
T3 sequence: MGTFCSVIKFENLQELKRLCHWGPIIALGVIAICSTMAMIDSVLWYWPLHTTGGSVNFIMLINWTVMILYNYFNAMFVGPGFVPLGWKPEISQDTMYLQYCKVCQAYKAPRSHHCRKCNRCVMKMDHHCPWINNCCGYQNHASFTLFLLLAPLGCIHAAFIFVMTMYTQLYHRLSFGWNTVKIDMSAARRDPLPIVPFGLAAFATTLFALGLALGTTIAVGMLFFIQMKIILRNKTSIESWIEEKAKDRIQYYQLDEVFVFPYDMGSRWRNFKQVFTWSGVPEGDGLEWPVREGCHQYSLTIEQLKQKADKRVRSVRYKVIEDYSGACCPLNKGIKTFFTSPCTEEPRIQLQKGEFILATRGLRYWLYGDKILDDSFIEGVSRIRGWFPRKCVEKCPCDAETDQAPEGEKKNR
Put plainly: co-IP; Myc-tagged AEG-1 and HA-tagged zDHHC6 co-expressed in HEK293T cells; RIPA lysates, protein A/G magnetic beads, western blotting.

Experiment [5] has as its target staphylococcal nuclease and tudor domain containing 1 (SND1), endogenous in human liver cancer cells (human (endogenous in Huh7 and HepG2)) (UniProt Q7KZF4). In words: co-IP; Huh7 or HepG2 cells expressing AEG-1-Myc, treated with 1x PBS or HCQ; normalised to PBS treatment.
In experiment [6] the target is FBXW7, Flag-tagged (UniProt Q969H0). Put plainly: co-IP; FBXW7 co-expressed with AEG-1-WT or AEG-1-MT; immunoprecipitation and western blotting, quantified, normalised to AEG-1-WT; cell line not stated in the legend. In general terms: A western blot detects proteins with antibodies after separation by electrophoresis.

B1: AEG-1 C75A, endogenous in liver of AEG-1^C75A knock-in mice (protein, UniProt Q80WJ7 1-579)
chain: MAARSWQDELAQQAEEGSARLRELLSVGLGFLRTELGLDLGLEPKRYPGWVILVGTGALGLLLLFLLGYGWAAAAAGARKKRRSPPRKREEAAPPTPAPDDLAQLKNLRSEEQKKKNRKKLPEKPKPNGRTVEVPEDEVVRNPRSITAKQAPETDKKNEKSKKNKKKSKSDAKAVQNSSRHDGKEVDEGAWETKISHREKRQQRKRDKVLTDSGSLDSTIPGIENIITVTTEQLTTASFPVGSKKNKGDSHLNVQVSNFKSGKGDSTLQVSSRLNENLTVNGGGWSEKSVKLSSQLSEEKWNSVPPASAGKRKTEPSAWTQDTGDTNANGKDWGRNWSDRSIFSGIGSTAEPVSQSTTSDYQWDVSRNQPYIDDEWSGLNGLSSADPSSDWNAPAEEWGNWVDEDRASLLKSQEPISNDQKVSDDDKEKGEGALPTGKSKKKKKKKKKQGEDNSHTQDTEDLEKDTREELPVNTSKARPKQEKACSLKTMSTSDPAEVLIKNSQPVKTLPPAISAEPSITLSKGDSDNSSSQVPPMLQDTDKPKSNAKQNSVPPSQTKSETNWESPKQIKKKKKARRET
Take B1: in experiment [1], the binding result is “binds”.

B2: depalmitoylating enzyme PPT2, Flag-tagged (enzyme, UniProt Q9UMR5 28-302)
chain: APAPHRASYKPVIVVHGLFDSSYSFRHLLEYINETHPGTVVTVLDLFDGRESLRPLWEQVQGFREAVVPIMAKAPQGVHLICYSQGGLVCRALLSVMDDHNVDSFISLSSPQMGQYGDTDYLKWLFPTSMRSNLYRICYSPWGQEFSICNYWHDPHHDDLYLNASSFLALINGERDHPNATVWRKNFLRVGHLVLIGGPDDGVITPWQSSFFGFYDANETVLEMEEQLVYLRDSFGLKTLLARGAIVRCPMAGISHTAWHSNRTLYETCIEPWLS
Consider B2, for which the binding entry in experiment [2] is “binds”.

B3: wildtype AEG-1 (Astrocyte-elevated gene-1), Myc-tagged (protein, UniProt Q86UE4 1-582)
chain: T2 sequence (chain, Cys-75 palmitoylated in cells (mono-palmitoylated by APEGS assay))
modifications: Cys-75 palmitoylated in cells (mono-palmitoylated by APEGS assay)
As to B3, the binding result in experiment [3], in experiment [4], in experiment [5] and in experiment [6] was “binds” in each case.

B4: mutant AEG-1 (cysteine at position 75 mutated to alanine), Myc-tagged (protein, UniProt Q86UE4 1-582)
chain: T2 sequence (chain, Cys-75 palmitoylated in cells (mono-palmitoylated by APEGS assay)) with C75A
Consider B4, for which the figures for the binding result in experiment [3] and in experiment [6] were “binds” and “binds weakly”, respectively.
